{"sequences": {"note": "Chains of the proteins cited; added tags and fusions are not shown. Lines headed by an entry give the natural chain unless they say otherwise; changes in a name come on top.", "UniProt Q921E6": "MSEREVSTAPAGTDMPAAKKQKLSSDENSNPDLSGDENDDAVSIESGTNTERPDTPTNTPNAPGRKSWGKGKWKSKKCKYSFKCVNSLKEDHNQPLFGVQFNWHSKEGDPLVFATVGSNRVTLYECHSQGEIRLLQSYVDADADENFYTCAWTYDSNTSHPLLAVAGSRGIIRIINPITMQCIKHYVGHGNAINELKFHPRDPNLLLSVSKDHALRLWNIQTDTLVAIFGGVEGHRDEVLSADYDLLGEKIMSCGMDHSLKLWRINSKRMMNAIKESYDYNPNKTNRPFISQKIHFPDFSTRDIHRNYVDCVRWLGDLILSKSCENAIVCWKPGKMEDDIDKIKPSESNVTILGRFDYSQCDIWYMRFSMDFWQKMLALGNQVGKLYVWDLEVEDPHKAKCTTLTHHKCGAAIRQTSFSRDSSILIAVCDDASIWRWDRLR"}, "source": "patent US20190144863", "key": {"EED": {"molecular_target": "EED (UniProt Q921E6)", "assay": "enzyme reaction in vitro", "conditions": "mild enhancement of B2 cleavage kobs; fragmentation event said not observed in FIG. 2C; purified recombinant protein; label: radiolabelled in filter binding (cpm)"}, "PRC2 complex": {"tested_on": "PRC2 complex", "assay": "enzyme reaction in vitro", "conditions": "25 nM PRC2 with 200 nM B2 RNA gives fragmentation; 0.5 mM MgCl2; purified recombinant protein; label: radiolabelled in filter binding (cpm)"}}, "note": "For some assays here: The exact form of at least one protein or probe is not confirmed."}
{"sequence": "GGGGCUGGUGAGAUGGCUCAGUGGGUAAGAGCACCCGACUGCUCUUCCGAAGGUCCGGAGUUCAAAUCCCAGCAACCACAUGGUGGCUCACAACCAUCCGUAACGAGAUCUGACUCCCUCUUCUGGAGUGUCUGAAGACAGCUACAGUGUACUUACAUAUAAUAAAUAAAUAAAUCUUUAAAAAAAAA [B2 RNA full length]", "values": [{"measurement": "functional effect", "setting": "EED", "result": 0.008, "unit": "min⁻¹"}, {"measurement": "functional effect", "setting": "PRC2 complex", "result": "active"}]}
